Each structure is given as a SMILES string. The list shows only some results of the screen, not a fair sample: it is rich in T/C values a quarter to a half above the control, in often repeated tests (any T/C) and in doses without a T/C. Other doses and runs of a compound stand elsewhere. T/C: endpoint of the treated group in % of that of the vehicle group. Some doses have a count of surviving animals in place of a T/C: the source files T/C as zero there, which appears to mark a toxic dose or a test without result, not a measured value. Some doses without a T/C left all or most animals alive at the check, yet need not have been tolerated: the source hardly ever lists a survival T/C far under the control, and the zero likely stands for such cases as well. Counts of survivors are from the toxicity check (mostly the fifth day) where no day follows; animals may have died later. Schedules are NCI's codes, read here as Q, the interval in days (D) or hours (H), X, the number of doses. Some doses were run more than once; the results are listed from low to high. For survival time, the PubChem record calls one and a half times the control and up active, and a quarter to a half above the control has no call in these data; cut-offs in other NCI protocols can differ. Some T/C values carry the count of animals alive at the toxicity check (mostly the fifth day); where none is given, no animal had died by that day.

This test deals with P388 leukemia ip, CD2F1 mice, survival T/C. As to the kind of experiment: NCI In Vivo Anticancer Drug Screen. Data for tumor model P388 Leukemia (intraperitoneal) in CD2F1 (CDF1) mice. As to conditions: T/C endpoint: median survival time, higher T/C = longer survival.
Where [1] appears, read: dose: 100.0 mg/kg/injection, schedule: Q01DX009 (ip), vehicle: saline.
Where [2] appears, read: dose: 200.0 mg/kg/injection, schedule: Q01DX009 (ip), vehicle: saline.
Setting [3] is: dose: 2.0 mg/kg/injection, schedule: Q01DX005 (ip), vehicle: water.
Setting [4] is: dose: 32.0 mg/kg/injection, schedule: Q01DX005 (ip), vehicle: water.

As for `C=C1C(O)C2(O)OCC34C(CC5C(C)=CC(=O)C(O)C5(C)C23)OC(=O)C(OC(=O)C(C)(O)CC)C14` (centres undefined), the T/C was 126 % of control (dose: 0.5 mg/kg/injection, schedule: Q01DX009 (ip), vehicle: saline + alcohol); 128 and 146 % of control [5 of 6 alive] (dose: 1.0 mg/kg/injection, schedule: Q01DX009 (ip), vehicle: saline + alcohol); 128 % of control (dose: 2.0 mg/kg/injection, schedule: Q01DX009 (ip), vehicle: saline + alcohol). For the same compound, the survivor count is given as 4 of 6 (dose: 3.0 mg/kg/injection, schedule: Q01DX009 (ip), vehicle: saline + alcohol); 0 of 6 (dose: 4.0 mg/kg/injection, schedule: Q01DX009 (ip), vehicle: saline + alcohol); 0 of 6 (dose: 8.0 mg/kg/injection, schedule: Q01DX009 (ip), vehicle: saline + alcohol); 0 of 6 (dose: 16.0 mg/kg/injection, schedule: Q01DX009 (ip), vehicle: saline + alcohol).

As to `O=C1C=CC(=O)c2c(O)ccc(O)c21`, the survivor count is 0 of 5 (dose: 1.6 mg/kg/injection, schedule: Q01DX005 (ip), vehicle: saline with Tween-80); 1 of 5 (dose: 3.12 mg/kg/injection, schedule: Q01DX005 (ip), vehicle: saline with Tween-80); 0 of 5 (dose: 6.25 mg/kg/injection, schedule: Q01DX005 (ip), vehicle: saline with Tween-80); 0 of 5 (dose: 12.5 mg/kg/injection, schedule: Q01DX005 (ip), vehicle: saline with Tween-80); 0 of 5 (dose: 50.0 mg/kg/injection, schedule: Q01DX005 (ip), vehicle: saline with Tween-80); 0 of 5 (dose: 100.0 mg/kg/injection, schedule: Q01DX005 (ip), vehicle: saline with Tween-80). Also, the survivor count (dose: 200.0 mg/kg/injection, schedule: Q01DX005 (ip), vehicle: saline with Tween-80) is 0 of 5.

Regarding `C[N+](c1ccc(Cl)cc1)=S(C)(C)=O`, the survivor count is listed as 3 of 6 (dose: 50.0 mg/kg/injection, schedule: Q01DX009 (ip), vehicle: saline); 0 of 6 under setting [1]; 0 of 6 under setting [2].

Take `CCCCCCCCCCCCC[N+]1([O-])CCOCC1`: the survivor count is, setting by setting: under setting [1], 2 of 6; under setting [2], 0 of 6.

Take `[Cl][Pt+2][Cl].[NH-]c1cccc(F)c1.[NH-]c1cccc(F)c1`: the survivor count runs as follows: (dose: 25.0 mg/kg/injection, schedule: Q01DX009 (ip), vehicle: Klucel (hydroxypropylcellulose) (HPC)) 1 of 6 and 3 of 6; (dose: 50.0 mg/kg/injection, schedule: Q01DX009 (ip), vehicle: Klucel (hydroxypropylcellulose) (HPC)) 1 of 6; (dose: 100.0 mg/kg/injection, schedule: Q01DX009 (ip), vehicle: Klucel (hydroxypropylcellulose) (HPC)) 0 of 6.

In the case of `CNC(=S)N/N=C/c1nccc(-c2ccccc2)c1C`, the T/C (dose: 100.0 mg/kg/injection, schedule: Q04DX003 (ip), vehicle: saline with Tween-80) is 137 % of control. Moreover, the survivor count (dose: 400.0 mg/kg/injection, schedule: Q04DX003 (ip), vehicle: saline with Tween-80) is listed as 3 of 6.

Turning to `N[C@H](C(=O)O)[C@@H]1CC(Cl)=NO1`, the T/C is 126 % of control (dose: 0.06 mg/kg/injection, schedule: Q01DX009 (ip), vehicle: saline); 128 and 132 % of control (dose: 0.13 mg/kg/injection, schedule: Q01DX009 (ip), vehicle: saline); 126 % of control (dose: 0.25 mg/kg/injection, schedule: Q01DX009 (ip), vehicle: saline); 134 % of control (dose: 1.0 mg/kg/injection, schedule: Q01DX009 (ip), vehicle: saline); 153 and 171 % of control (dose: 1.5 mg/kg/injection, schedule: Q01DX009 (ip), vehicle: saline, evaluated on day 5); 174 and 177 % of control (dose: 1.5 mg/kg/injection, schedule: Q01DX009 (ip), vehicle: saline, evaluated on day 45). Besides, the T/C (dose: 2.0 mg/kg/injection, schedule: Q01DX005 (ip), vehicle: saline) is 130 % of control; the T/C under setting [3] was 130 % of control; the T/C (dose: 2.59 mg/kg/injection, schedule: Q01DX005 (ip), vehicle: saline) was 141 % of control; the T/C (dose: 3.0 mg/kg/injection, schedule: Q01DX005 (ip), vehicle: saline) is 144 % of control; the T/C (dose: 3.12 mg/kg/injection, schedule: Q01DX005 (ip), vehicle: water) was 149 % of control; the T/C (dose: 3.13 mg/kg/injection, schedule: Q04DX003 (ip), vehicle: other) is 126 % of control. In addition, the T/C (dose: 4.0 mg/kg/injection, schedule: Q01DX005 (ip), vehicle: saline) was 132 % of control; the T/C (dose: 4.0 mg/kg/injection, schedule: Q01DX005 (ip), vehicle: water) is 143 % of control; the T/C (dose: 6.0 mg/kg/injection, schedule: Q01DX005 (ip), vehicle: saline) is 144 % of control; the T/C (dose: 6.0 mg/kg/injection, schedule: Q01DX005 (iv), vehicle: saline) was 132 % of control; the T/C (dose: 6.25 mg/kg/injection, schedule: Q04DX003 (ip), vehicle: other) was 127 % of control; the T/C (dose: 9.0 mg/kg/injection, schedule: Q01DX009 (ip), vehicle: saline) is 146 % of control. Besides, the T/C (dose: 10.0 mg/kg/injection, schedule: Q04DX003 (ip), vehicle: saline, evaluated on day 30) was 138 % of control; the T/C (dose: 10.0 mg/kg/injection, schedule: Q04DX003 (ip), vehicle: saline, evaluated on day 45) is 140 and 148 % of control; the T/C (dose: 12.0 mg/kg/injection, schedule: Q01DX005 (ip), vehicle: saline) was 145 % of control; the T/C (dose: 12.5 mg/kg/injection, schedule: Q04DX003 (ip), vehicle: other) is 136 % of control; the T/C (dose: 16.0 mg/kg/injection, schedule: Q01DX005 (iv), vehicle: saline) was 141 % of control; the T/C (dose: 20.0 mg/kg/injection, schedule: Q04DX003 (ip), vehicle: saline, evaluated on day 30) was 138 % of control. Besides, the T/C by setting is: (dose: 20.0 mg/kg/injection, schedule: Q04DX003 (ip), vehicle: saline, evaluated on day 45) 148 % of control; (dose: 25.0 mg/kg/injection, schedule: Q04DX003 (ip), vehicle: other) 145 % of control; under setting [4], 142 % of control; (dose: 40.0 mg/kg/injection, schedule: Q04DX003 (ip), vehicle: saline) 146 % of control. Moreover, the survivor count under setting [3] is given as 5 of 5; the survivor count (dose: 8.0 mg/kg/injection, schedule: Q01DX005 (ip), vehicle: water) was 5 of 5; the survivor count (dose: 15.0 mg/kg/injection, schedule: Q01DX009 (ip), vehicle: saline) is reported as 8 of 8; the survivor count (dose: 32.0 mg/kg/injection, schedule: Q01DX005 (ip), vehicle: saline) is 6 of 6; the survivor count under setting [4] is on record as 3 of 5; the survivor count (dose: 32.0 mg/kg/injection, schedule: Q01DX005 (iv), vehicle: saline) is listed as 6 of 6. Moreover, the survivor count (dose: 32.0 mg/kg/injection, schedule: Q01DX009 (ip), vehicle: water) is 3 of 3.

Turning to `CCOC(=O)Cc1c[nH]c2ccc(N(CCCl)CCCl)cc12`, under “dose: 19.0 mg/kg/injection, schedule: Q04DX003 (ip), vehicle: Klucel (hydroxypropylcellulose) (HPC)”, the survivor count is given as 5 of 6.

In the case of `COCC(=O)O`, the survivor count is 2 of 6 under setting [2] and 0 of 6 (dose: 400.0 mg/kg/injection, schedule: Q01DX009 (ip), vehicle: saline).

Take `COC(=O)c1ccccc1NC(c1ccccn1)c1ccc2cccnc2c1O` (centres undefined): the survivor count by setting is: (dose: 200.0 mg/kg/injection, schedule: Q01DX009 (ip), vehicle: DMSO) 4 of 6; (dose: 400.0 mg/kg/injection, schedule: Q01DX009 (ip), vehicle: DMSO) 3 of 6.
